# Measured values published in the supplement of paper PMC10849652.
# Chains of the proteins cited; added tags and fusions are not shown. Lines headed by an entry give the natural chain unless they say otherwise; changes in a name come on top.
# UniProt Q9NZB2: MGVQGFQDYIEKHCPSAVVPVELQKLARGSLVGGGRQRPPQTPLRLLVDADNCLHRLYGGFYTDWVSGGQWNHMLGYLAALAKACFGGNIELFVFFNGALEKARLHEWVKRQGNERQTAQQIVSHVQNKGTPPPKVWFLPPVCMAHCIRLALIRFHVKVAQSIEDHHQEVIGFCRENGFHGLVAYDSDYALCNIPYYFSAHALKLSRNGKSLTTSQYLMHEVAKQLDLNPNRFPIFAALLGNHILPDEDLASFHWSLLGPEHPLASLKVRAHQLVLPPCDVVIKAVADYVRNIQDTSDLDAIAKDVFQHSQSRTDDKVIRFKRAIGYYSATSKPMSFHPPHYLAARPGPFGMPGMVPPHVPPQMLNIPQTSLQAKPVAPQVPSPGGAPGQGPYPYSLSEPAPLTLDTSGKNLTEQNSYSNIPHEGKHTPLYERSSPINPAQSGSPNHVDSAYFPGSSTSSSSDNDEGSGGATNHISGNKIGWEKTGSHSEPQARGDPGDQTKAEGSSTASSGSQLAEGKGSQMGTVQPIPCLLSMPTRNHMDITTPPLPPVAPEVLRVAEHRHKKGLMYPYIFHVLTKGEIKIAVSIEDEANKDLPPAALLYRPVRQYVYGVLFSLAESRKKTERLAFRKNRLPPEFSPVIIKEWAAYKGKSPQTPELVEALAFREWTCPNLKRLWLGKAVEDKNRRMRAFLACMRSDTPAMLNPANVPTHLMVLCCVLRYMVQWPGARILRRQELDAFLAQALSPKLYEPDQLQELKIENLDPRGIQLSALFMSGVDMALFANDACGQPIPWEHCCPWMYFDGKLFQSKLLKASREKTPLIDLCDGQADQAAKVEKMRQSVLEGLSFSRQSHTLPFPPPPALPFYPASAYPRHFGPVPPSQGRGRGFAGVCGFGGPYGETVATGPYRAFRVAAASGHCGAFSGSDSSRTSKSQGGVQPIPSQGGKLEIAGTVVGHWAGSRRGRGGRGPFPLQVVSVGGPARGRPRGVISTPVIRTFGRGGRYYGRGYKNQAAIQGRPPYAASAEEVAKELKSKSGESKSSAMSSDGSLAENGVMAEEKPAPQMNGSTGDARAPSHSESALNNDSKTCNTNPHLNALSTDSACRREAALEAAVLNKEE
# UniProt Q9UPT5: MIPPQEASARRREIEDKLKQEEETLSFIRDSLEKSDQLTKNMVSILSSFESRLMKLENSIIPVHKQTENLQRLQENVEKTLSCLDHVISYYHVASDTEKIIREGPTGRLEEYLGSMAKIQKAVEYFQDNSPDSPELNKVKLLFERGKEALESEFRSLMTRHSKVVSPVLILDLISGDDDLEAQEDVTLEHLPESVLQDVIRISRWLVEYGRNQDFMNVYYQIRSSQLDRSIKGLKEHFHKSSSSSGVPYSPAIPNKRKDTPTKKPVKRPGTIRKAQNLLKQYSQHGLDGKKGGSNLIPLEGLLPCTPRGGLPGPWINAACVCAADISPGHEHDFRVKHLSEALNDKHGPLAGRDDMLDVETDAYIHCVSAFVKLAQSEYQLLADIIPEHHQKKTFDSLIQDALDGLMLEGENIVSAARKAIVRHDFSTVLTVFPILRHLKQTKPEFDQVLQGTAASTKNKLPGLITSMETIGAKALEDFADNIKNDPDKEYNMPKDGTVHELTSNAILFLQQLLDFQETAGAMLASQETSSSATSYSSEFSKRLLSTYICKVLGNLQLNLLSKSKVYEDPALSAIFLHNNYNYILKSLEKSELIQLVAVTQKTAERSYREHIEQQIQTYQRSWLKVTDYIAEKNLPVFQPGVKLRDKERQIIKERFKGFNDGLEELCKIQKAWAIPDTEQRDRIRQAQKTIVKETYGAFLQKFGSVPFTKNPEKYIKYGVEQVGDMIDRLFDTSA
# UniProt Q9NUQ9: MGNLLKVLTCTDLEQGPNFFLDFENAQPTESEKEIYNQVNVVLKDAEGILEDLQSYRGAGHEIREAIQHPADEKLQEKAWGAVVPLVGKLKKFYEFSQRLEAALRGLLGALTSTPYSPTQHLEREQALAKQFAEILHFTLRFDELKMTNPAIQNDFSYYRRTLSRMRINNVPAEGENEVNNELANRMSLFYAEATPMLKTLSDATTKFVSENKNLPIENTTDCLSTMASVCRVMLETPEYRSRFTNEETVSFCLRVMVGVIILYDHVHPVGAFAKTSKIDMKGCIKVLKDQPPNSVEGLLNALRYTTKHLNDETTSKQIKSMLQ
# UniProt Q01780: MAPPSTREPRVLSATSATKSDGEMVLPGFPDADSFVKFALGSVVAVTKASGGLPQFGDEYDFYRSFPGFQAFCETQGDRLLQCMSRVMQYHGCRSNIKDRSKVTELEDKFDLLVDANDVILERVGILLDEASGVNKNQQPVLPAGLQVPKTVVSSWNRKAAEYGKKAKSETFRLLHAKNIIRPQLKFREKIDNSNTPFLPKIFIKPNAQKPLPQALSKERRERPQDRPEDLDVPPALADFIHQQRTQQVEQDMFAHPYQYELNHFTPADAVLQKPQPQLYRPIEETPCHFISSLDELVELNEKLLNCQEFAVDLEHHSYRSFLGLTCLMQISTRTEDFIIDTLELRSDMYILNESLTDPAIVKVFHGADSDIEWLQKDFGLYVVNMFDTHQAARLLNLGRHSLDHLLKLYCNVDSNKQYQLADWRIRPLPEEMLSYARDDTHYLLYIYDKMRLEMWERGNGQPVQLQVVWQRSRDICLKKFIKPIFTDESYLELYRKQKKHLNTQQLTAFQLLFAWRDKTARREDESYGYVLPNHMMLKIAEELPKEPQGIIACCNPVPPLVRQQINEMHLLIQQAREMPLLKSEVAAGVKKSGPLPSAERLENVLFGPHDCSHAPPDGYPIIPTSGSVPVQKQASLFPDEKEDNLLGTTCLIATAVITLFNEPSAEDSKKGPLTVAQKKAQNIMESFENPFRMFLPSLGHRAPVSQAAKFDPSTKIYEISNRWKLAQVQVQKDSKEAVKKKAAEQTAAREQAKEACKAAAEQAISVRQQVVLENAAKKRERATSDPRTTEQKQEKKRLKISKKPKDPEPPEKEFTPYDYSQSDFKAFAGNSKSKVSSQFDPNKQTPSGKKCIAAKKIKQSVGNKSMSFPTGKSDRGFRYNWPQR
# UniProt P11474: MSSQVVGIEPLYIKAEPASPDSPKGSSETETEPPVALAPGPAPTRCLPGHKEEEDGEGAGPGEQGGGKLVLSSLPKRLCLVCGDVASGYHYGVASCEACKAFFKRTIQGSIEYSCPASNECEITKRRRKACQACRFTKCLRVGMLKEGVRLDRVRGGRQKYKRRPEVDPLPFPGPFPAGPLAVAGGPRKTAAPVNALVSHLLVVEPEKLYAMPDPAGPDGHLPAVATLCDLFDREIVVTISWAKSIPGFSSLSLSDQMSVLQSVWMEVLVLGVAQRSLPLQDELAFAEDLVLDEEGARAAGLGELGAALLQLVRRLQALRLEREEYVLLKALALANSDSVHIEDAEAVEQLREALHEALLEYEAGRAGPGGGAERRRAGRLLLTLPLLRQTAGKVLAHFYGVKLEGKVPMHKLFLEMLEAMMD
# UniProt P15311, whole entry, looked up: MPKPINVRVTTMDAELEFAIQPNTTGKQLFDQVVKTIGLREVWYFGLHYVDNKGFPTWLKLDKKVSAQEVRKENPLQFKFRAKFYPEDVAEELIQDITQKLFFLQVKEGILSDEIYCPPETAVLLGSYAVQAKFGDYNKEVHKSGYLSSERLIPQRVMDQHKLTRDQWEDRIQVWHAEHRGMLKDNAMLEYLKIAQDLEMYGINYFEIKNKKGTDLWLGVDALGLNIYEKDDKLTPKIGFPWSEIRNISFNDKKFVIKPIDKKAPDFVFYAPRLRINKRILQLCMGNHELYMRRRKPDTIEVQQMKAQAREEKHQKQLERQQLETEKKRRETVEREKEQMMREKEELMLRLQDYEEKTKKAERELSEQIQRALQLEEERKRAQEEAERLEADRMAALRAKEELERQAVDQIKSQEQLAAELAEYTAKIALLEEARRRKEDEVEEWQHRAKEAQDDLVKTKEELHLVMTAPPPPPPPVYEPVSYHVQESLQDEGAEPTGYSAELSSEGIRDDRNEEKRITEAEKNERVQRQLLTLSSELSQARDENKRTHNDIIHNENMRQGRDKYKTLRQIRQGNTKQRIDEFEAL
# UniProt Q96DZ1: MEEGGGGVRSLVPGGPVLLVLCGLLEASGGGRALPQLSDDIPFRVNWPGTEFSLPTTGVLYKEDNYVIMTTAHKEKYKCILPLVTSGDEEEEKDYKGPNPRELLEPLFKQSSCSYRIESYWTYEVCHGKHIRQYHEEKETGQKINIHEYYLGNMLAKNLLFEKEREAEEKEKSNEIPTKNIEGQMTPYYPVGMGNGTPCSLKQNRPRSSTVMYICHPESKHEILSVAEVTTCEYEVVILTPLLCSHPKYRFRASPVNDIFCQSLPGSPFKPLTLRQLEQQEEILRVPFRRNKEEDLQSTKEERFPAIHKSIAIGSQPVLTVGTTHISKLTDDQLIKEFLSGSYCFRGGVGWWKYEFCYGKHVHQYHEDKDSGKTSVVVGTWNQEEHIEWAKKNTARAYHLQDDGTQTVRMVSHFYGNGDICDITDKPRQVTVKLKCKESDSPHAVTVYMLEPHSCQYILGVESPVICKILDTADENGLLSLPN
# UniProt Q6P2I3: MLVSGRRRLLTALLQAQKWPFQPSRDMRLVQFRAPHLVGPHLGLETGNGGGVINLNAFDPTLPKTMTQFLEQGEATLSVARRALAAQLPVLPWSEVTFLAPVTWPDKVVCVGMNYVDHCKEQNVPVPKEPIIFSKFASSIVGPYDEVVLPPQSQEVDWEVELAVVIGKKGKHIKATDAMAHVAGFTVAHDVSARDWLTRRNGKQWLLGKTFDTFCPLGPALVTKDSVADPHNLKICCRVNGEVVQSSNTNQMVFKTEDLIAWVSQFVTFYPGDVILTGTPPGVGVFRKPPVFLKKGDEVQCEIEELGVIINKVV
# UniProt O95571: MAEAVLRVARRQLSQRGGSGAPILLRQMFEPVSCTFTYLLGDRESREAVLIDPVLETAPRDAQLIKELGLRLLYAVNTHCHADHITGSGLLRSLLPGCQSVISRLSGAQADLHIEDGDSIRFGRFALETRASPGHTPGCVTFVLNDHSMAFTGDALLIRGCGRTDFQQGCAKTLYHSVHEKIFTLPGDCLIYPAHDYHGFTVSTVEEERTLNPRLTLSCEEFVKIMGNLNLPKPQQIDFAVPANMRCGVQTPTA
# UniProt Q01469, whole entry, looked up: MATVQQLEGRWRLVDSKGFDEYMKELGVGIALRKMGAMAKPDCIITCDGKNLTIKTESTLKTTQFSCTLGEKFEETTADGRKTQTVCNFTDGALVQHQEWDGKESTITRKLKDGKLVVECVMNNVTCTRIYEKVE
# UniProt Q96ND0: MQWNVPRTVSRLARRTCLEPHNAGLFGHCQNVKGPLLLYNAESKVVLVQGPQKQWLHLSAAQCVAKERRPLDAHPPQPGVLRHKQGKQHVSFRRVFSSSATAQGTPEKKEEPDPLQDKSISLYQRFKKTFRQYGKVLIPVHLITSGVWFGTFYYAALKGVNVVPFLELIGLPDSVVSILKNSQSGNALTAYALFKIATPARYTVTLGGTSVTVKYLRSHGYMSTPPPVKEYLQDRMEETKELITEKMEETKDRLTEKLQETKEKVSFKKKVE
# UniProt P98173: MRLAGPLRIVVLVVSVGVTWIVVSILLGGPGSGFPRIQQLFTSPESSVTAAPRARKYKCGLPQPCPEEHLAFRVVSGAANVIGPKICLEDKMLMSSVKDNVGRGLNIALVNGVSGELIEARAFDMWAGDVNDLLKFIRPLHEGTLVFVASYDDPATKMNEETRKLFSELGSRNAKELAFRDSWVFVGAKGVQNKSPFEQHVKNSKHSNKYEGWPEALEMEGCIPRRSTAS
# UniProt Q9NRY5: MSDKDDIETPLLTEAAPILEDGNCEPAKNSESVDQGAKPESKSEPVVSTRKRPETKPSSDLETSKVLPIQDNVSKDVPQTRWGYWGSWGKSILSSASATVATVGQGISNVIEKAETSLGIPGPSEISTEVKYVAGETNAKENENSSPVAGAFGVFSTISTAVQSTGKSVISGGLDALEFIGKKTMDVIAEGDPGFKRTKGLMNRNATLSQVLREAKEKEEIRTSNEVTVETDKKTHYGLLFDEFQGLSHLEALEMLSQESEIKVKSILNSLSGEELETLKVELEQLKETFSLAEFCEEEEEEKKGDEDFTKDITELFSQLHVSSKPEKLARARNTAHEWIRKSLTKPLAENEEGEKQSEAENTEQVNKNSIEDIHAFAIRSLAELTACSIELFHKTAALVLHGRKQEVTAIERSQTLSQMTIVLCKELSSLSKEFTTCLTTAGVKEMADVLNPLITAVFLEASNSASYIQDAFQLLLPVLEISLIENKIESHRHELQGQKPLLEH
# UniProt Q9NVQ4: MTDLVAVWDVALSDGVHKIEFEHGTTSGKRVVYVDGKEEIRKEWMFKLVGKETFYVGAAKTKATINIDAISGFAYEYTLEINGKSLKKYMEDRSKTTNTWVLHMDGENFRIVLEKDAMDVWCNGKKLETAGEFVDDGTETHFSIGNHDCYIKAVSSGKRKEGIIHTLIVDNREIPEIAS
# The list shows a part of the results.
# Experiments:
# Test in all cases: log2 fold change, soluble protein after heating vs DMSO (PISA); higher = thermal stabilisation; K562 lysate, 10 uM; active = over 0.2 and 3.5 SD of the protein, either way, in both replicates (recomputed)
# [1] = compound: C=CC(=O)N1CCC[C@@H](n2nc(-c3ccc(Oc4ccccc4)cc3)c3c(N)ncnc32)C1 [ibrutinib]
# How it was run: (§1)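 A 30 min treatment with 10 μM compound was applied to crude K562 extract at 1 mg/mL protein in PBS pH 7.4 with 1 mM MgCl2. Heating for 3 min spanned 48°C-58°C, after which aliquots were pooled, adjusted to 0.5% NP-40 at 4°C and spun at 21,000xg for 90 min. TMTpro 16plex LC-MS/MS of the supernatant, with channel sums equalised, gave values recorded as log-two fold change in thermal stability against solvent controls, from duplicates.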
# [2] = compound: CC(=O)c1cnc2ccc(-c3cc(Cl)c(O)c(Cl)c3)nc2c1N[C@H]1CC[C@H](CN(C)C)CC1
# How it was run: as §1
# [3] = compound: CC(C)(C)Cn1c(N)nc2ccc(-c3[nH]c(C(C)(C)C)nc3-c3ccc(F)cc3)nc21 [ralimetinib]
# How it was run: as §1
# [4] = compound: CC(C)(O)CC(=O)NCCn1ccc2ncnc(Nc3ccc(Oc4cccc(C(F)(F)F)c4)c(Cl)c3)c21
# How it was run: as §1
# [5] = compound: CC(C)C1=C2N=C(C=C(N2N=C1)NCC3=CC=CC=C3)NCCCCCCN
# How it was run: as §1
# [6] = compound: CC1=C(C(CC(=O)N1)C2=CC=C(C=C2)C(F)(F)F)C(=O)NC3=C(C=C4C(=C3)C=NN4)F
# How it was run: as §1
# [7] = compound: CC1=C(C2=C(C=C1)C(=O)C3=CC=CC=C3N2CCCN)C
# How it was run: as §1
# [8] = compound: CC1=C(C=C(C=C1)NC(=O)C2=CC(=CC=C2)C(C)(C)C#N)NC3=CC4=C(C=C3)N=CN(C4=O)C
# How it was run: as §1
# [9] = compound: CC1=C(C=C(C=C1)NC(=O)C2=CC(=CC=C2)N(C)C)NC(=O)C3=CC=C(C=C3)O
# How it was run: as §1
# [10] = compound: CC1=CC=C(C=C1)SC2=C3C=C(SC3=CN=C2)C(=O)N
# How it was run: as §1
# [11] = compound: CCCS(=O)(=O)Nc1ccc(F)c(C(=O)c2c[nH]c3ncc(-c4ccc(Cl)cc4)cc23)c1F [vemurafenib]
# How it was run: as §1
# [12] = compound: CCCS(=O)(=O)Nc1ccc(F)c(C(=O)c2c[nH]c3ncc(Cl)cc23)c1F
# How it was run: as §1
# [13] = compound: CCN(CCCOc1ccc2c(Nc3cc(CC(=O)Nc4cccc(F)c4)[nH]n3)ncnc2c1)CCOP(=O)(O)O [barasertib]
# How it was run: as §1
# [14] = compound: CC[C@@H]1C(=O)N(C)c2cnc(Nc3ccc(C(=O)NC4CCN(C)CC4)cc3OC)nc2N1C1CCCC1
# How it was run: as §1
# [15] = compound: CC[C@@H]1C(=O)N(C)c2cnc(Nc3ccc(C(=O)N[C@H]4CC[C@H](N5CCN(CC6CC6)CC5)CC4)cc3OC)nc2N1C(C)C [volasertib]
# How it was run: as §1
# [16] = compound: CCn1c(C(=O)N(C2CC2)C2CC2)cc2c3c(ncn3C)c(Nc3cc(C)n(C)n3)nc21
# How it was run: as §1
# [17] = compound: CCn1cc(-c2ccnc3[nH]c(-c4cccc(CN(C)C)c4)cc23)c(-c2ccc(NC(=O)N(C)C)cc2)n1
# How it was run: as §1
# [18] = compound: CN1CCC(CNc2ccc3ncc(-c4cccc(OC(F)(F)F)c4)n3n2)CC1
# How it was run: as §1
# [19] = compound: CN1CCN(CCOc2cc(OC3CCOCC3)c3c(Nc4c(Cl)ccc5c4OCO5)ncnc3c2)CC1 [saracatinib]
# How it was run: as §1
# [20] = compound: CN1CCN(c2nc(C3=C(c4c[nH]c5ccccc45)C(=O)NC3=O)c3ccccc3n2)CC1 [sotrastaurin]
# How it was run: as §1
Target,log2 fold change [1],log2 fold change [2],log2 fold change [3],log2 fold change [4],log2 fold change [5],log2 fold change [6],log2 fold change [7],log2 fold change [8],log2 fold change [9],log2 fold change [10],log2 fold change [11],log2 fold change [12],log2 fold change [13],log2 fold change [14],log2 fold change [15],log2 fold change [16],log2 fold change [17],log2 fold change [18],log2 fold change [19],log2 fold change [20]
FAM120A isoform 6 (UniProt Q9NZB2),inactive: -0.023,inactive: -0.042,inactive: -0.001,inactive: -0.065,inactive: 0.026,inactive: -0.007,inactive: -0.037,inactive: -0.013,inactive: 0.03,inactive: 0.002,inactive: 0.033,inactive: 0.009,inactive: -0.019,inactive: 0.013,inactive: -0.021,inactive: -0.022,inactive: -0.026,inactive: 0.018,inactive: 0.007,inactive: -0.009
ERP29 (UniProt P30040),inactive: -0.001,inactive: 0.018,inactive: -0.031,inactive: 0.041,inactive: -0.008,inactive: -0.022,inactive: 0.027,inactive: -0.021,inactive: 0,inactive: 0.028,inactive: -0.011,inactive: -0.017,inactive: -0.071,inactive: 0.03,inactive: 0.01,inactive: 0.016,inactive: 0.199,inactive: -0.082,inactive: -0.006,inactive: 0.003
EXOC7 (UniProt Q9UPT5),inactive: -0.005,inactive: -0.025,inactive: -0.005,inactive: -0.035,inactive: -0.005,inactive: 0.031,inactive: -0.026,inactive: 0.02,inactive: 0.051,inactive: -0.049,inactive: -0.006,inactive: 0.031,inactive: 0.03,inactive: -0.015,inactive: -0.069,inactive: 0.013,inactive: -0.098,inactive: 0.004,inactive: 0.015,inactive: 0
FAM49B (UniProt Q9NUQ9),inactive: 0.017,inactive: 0,inactive: -0.005,inactive: -0.01,inactive: -0.03,inactive: -0.002,inactive: -0.019,inactive: 0.04,inactive: -0.017,inactive: 0.028,inactive: -0.004,inactive: -0.017,inactive: -0.008,inactive: -0.034,inactive: 0.013,inactive: -0.012,inactive: 0.021,inactive: 0.025,inactive: -0.004,inactive: -0.023
EXOSC10 (UniProt Q01780),inactive: 0,inactive: -0.022,inactive: -0.062,inactive: -0.096,inactive: 0.027,inactive: 0.014,inactive: -0.059,inactive: -0.019,inactive: 0,inactive: 0.009,inactive: 0.026,inactive: 0.021,inactive: 0.077,inactive: 0.015,inactive: -0.015,inactive: -0.088,inactive: -0.031,inactive: -0.065,inactive: 0.001,inactive: 0.029
ESRRA (UniProt P11474),active: -0.408,inactive: 0.045,inactive: 0.043,inactive: -0.023,inactive: 0,inactive: -0.007,inactive: -0.075,inactive: 0.067,inactive: -0.009,inactive: 0.089,inactive: 0.058,inactive: 0.005,inactive: 0.041,inactive: 0.03,inactive: -0.075,inactive: -0.039,active: 0.569,inactive: -0.283,inactive: -0.055,inactive: 0.053
EZR (UniProt P15311),inactive: 0.017,inactive: -0.009,inactive: -0.026,inactive: 0.006,inactive: -0.003,inactive: -0.012,inactive: 0,inactive: -0.007,inactive: -0.004,inactive: 0.001,inactive: -0.021,inactive: -0.022,inactive: -0.022,inactive: 0.009,inactive: 0.008,inactive: 0.003,inactive: 0.125,inactive: -0.037,inactive: -0.012,inactive: 0
ERLEC1 (UniProt Q96DZ1),inactive: 0.003,inactive: 0.007,inactive: 0.032,inactive: -0.031,inactive: -0.015,inactive: 0.03,inactive: -0.012,inactive: 0.019,inactive: -0.024,inactive: -0.014,inactive: 0.009,inactive: 0.003,inactive: 0.009,inactive: -0.023,inactive: 0.015,inactive: -0.013,inactive: -0.027,inactive: 0.034,inactive: -0.052,inactive: 0.009
FAHD2B (UniProt Q6P2I3),inactive: -0.036,inactive: -0.044,inactive: 0.068,inactive: -0.081,inactive: -0.101,inactive: 0.009,inactive: 0.1,inactive: -0.078,inactive: 0.093,inactive: -0.074,inactive: -0.05,inactive: 0.011,inactive: 0.04,inactive: 0.108,inactive: 0.001,inactive: 0.012,inactive: -0.076,inactive: 0.069,inactive: 0.221,inactive: 0
FAM117A (UniProt Q9C073),inactive: 0.031,inactive: 0.051,inactive: -0.008,inactive: 0.019,inactive: -0.024,inactive: 0.04,inactive: -0.025,inactive: 0.019,inactive: -0.028,inactive: 0.011,inactive: -0.048,inactive: 0.003,inactive: -0.103,inactive: 0.088,inactive: -0.007,inactive: -0.002,inactive: 0.073,inactive: -0.038,inactive: 0.011,inactive: -0.037
ETHE1 (UniProt O95571),inactive: -0.029,inactive: -0.01,inactive: 0.03,inactive: -0.021,inactive: -0.092,inactive: 0.087,inactive: 0.022,inactive: 0.011,inactive: 0.046,inactive: -0.042,inactive: -0.018,inactive: 0.022,inactive: 0.076,inactive: -0.013,inactive: -0.017,inactive: -0.007,inactive: 0.044,inactive: 0.003,inactive: 0.001,inactive: -0.004
FABP5 (UniProt Q01469),inactive: -0.026,inactive: -0.039,inactive: 0.043,inactive: 0.177,inactive: -0.033,inactive: 0.107,inactive: 0.074,inactive: 0.079,inactive: -0.022,inactive: -0.017,inactive: -0.087,inactive: 0.01,inactive: 0.032,inactive: -0.053,inactive: 0.047,inactive: 0.044,inactive: 0.066,inactive: -0.052,inactive: -0.045,inactive: -0.11
FAM210A (UniProt Q96ND0),inactive: 0.047,inactive: -0.012,inactive: 0.024,inactive: -0.007,inactive: -0.029,inactive: 0.006,inactive: -0.006,inactive: 0.02,inactive: -0.021,inactive: -0.026,inactive: 0.021,inactive: -0.016,inactive: -0.045,inactive: 0.036,inactive: 0.051,inactive: 0.031,inactive: -0.032,inactive: 0.039,inactive: 0,inactive: 0.014
FAM3A (UniProt P98173),inactive: 0.012,inactive: 0.052,inactive: -0.017,inactive: 0.009,inactive: 0.025,inactive: -0.078,inactive: 0.07,inactive: -0.05,inactive: -0.02,inactive: -0.076,inactive: 0.046,inactive: -0.012,inactive: -0.022,inactive: 0.006,inactive: 0.045,inactive: -0.02,inactive: -0.03,inactive: 0.055,inactive: -0.016,inactive: -0.011
FAM114A2 (UniProt Q9NRY5),inactive: -0.016,inactive: -0.061,inactive: -0.036,inactive: -0.11,inactive: 0.057,inactive: 0.171,inactive: 0.06,inactive: -0.069,inactive: 0.005,inactive: 0.012,inactive: 0.054,inactive: 0.049,inactive: 0.086,inactive: 0.131,inactive: -0.013,inactive: 0.014,inactive: 0.049,inactive: -0.039,inactive: 0.03,inactive: 0.033
FAIM isoform 2 (UniProt Q9NVQ4),inactive: -0.027,inactive: 0.028,inactive: -0.042,inactive: -0.071,inactive: -0.064,inactive: -0.132,inactive: 0.124,inactive: 0.076,inactive: 0.001,inactive: 0.116,inactive: -0.023,inactive: -0.028,inactive: 0.054,inactive: -0.103,inactive: -0.026,inactive: -0.054,inactive: -0.085,inactive: 0.103,inactive: -0.207,inactive: 0.04

# Single records, from the list above. Values in the order: log2 fold change [1] | log2 fold change [2] | log2 fold change [3] | log2 fold change [4] | log2 fold change [5] | log2 fold change [6] | log2 fold change [7] | log2 fold change [8] | log2 fold change [9] | log2 fold change [10] | log2 fold change [11] | log2 fold change [12] | log2 fold change [13] | log2 fold change [14] | log2 fold change [15] | log2 fold change [16] | log2 fold change [17] | log2 fold change [18] | log2 fold change [19] | log2 fold change [20]
# EXOC7 (UniProt Q9UPT5) is listed as inactive: -0.005 | inactive: -0.025 | inactive: -0.005 | inactive: -0.035 | inactive: -0.005 | inactive: 0.031 | inactive: -0.026 | inactive: 0.02 | inactive: 0.051 | inactive: -0.049 | inactive: -0.006 | inactive: 0.031 | inactive: 0.03 | inactive: -0.015 | inactive: -0.069 | inactive: 0.013 | inactive: -0.098 | inactive: 0.004 | inactive: 0.015 | inactive: 0
# FAM114A2 (UniProt Q9NRY5) is listed as inactive: -0.016 | inactive: -0.061 | inactive: -0.036 | inactive: -0.11 | inactive: 0.057 | inactive: 0.171 | inactive: 0.06 | inactive: -0.069 | inactive: 0.005 | inactive: 0.012 | inactive: 0.054 | inactive: 0.049 | inactive: 0.086 | inactive: 0.131 | inactive: -0.013 | inactive: 0.014 | inactive: 0.049 | inactive: -0.039 | inactive: 0.03 | inactive: 0.033
